Measured values from US20210361740A1.
No constants are given. Whether binding was seen depends on the method and setting. In cells and extracts the contact can be indirect. Some entries that bind do so weakly or less than the wild type.

By UniProt entry, the sequences of proteins in these tests, tags left out. Residues count along the entry.
UniProt Q9QUK6, residues 26-835: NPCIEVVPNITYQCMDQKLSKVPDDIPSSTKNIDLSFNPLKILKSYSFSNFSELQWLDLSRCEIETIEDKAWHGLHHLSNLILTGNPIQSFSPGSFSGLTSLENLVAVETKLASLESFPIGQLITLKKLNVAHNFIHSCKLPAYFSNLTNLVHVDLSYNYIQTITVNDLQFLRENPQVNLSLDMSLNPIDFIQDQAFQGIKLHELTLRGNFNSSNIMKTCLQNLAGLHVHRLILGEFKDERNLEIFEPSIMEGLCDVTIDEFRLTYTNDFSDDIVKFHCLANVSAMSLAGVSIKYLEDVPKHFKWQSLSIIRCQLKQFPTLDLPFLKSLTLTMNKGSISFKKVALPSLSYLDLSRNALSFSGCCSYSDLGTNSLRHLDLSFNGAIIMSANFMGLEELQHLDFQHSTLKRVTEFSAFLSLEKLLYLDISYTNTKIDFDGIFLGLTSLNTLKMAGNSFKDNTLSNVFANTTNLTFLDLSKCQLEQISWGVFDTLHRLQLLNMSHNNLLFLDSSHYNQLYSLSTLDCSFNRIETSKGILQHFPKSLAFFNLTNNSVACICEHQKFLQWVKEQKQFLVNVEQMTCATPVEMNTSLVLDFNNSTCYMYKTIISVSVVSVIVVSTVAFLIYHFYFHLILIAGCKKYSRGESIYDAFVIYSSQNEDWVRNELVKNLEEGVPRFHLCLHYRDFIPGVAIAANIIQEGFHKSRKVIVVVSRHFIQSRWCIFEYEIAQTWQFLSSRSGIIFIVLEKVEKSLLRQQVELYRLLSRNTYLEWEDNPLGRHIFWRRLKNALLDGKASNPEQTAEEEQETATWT
UniProt Q9QUN7, residues 25-784: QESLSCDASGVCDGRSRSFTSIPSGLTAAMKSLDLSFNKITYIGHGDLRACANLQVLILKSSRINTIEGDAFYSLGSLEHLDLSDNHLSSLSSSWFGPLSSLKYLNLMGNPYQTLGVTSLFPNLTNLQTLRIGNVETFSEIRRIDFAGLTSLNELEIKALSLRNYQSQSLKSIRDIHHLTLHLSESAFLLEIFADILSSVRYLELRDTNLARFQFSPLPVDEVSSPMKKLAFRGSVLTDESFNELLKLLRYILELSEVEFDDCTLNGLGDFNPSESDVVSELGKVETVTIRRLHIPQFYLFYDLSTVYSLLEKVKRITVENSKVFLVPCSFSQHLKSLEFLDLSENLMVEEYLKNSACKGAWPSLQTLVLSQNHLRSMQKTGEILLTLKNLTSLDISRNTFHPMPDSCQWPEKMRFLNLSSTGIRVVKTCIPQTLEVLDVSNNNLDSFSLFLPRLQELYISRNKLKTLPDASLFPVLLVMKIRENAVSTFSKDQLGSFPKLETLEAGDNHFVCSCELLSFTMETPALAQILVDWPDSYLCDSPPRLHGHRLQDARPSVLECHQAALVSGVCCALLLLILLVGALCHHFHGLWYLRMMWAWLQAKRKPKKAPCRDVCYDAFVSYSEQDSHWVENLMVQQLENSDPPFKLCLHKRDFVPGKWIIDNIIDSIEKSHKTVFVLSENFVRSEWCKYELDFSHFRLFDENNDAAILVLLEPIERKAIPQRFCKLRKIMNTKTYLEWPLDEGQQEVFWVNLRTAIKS
UniProt P22366: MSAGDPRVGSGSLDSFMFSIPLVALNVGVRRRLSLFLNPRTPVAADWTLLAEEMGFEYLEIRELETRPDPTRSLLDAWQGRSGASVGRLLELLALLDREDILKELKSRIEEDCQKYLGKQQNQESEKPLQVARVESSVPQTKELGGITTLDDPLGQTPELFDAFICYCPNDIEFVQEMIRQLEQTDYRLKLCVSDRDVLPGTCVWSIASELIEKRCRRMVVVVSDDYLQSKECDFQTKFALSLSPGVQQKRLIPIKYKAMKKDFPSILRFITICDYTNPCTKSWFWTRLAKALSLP

Key:
[1] = biological target: TLR4 (endogenous, in BV-2 microglial cells) (UniProt Q9QUK6); experiment: co-immunoprecipitation: anti-MyD88 IP, TLR4 blot, BV-2 cell extracts
[2] = biological target: TLR2 (endogenous, in microglial cells) (mouse) (UniProt Q9QUN7); experiment: densitometry of the co-immunoprecipitation (IP anti-MyD88, immunoblot TLR2) in BV-2 cells [G-L), panel H]
[3] = biological target: TLR4 (endogenous, in BV-2 microglial cells) (UniProt Q9QUK6); experiment: densitometry of the co-immunoprecipitation (IP anti-MyD88, immunoblot TLR4) in BV-2 cells [G-L), panel J]
[4] = biological target: TLR2 (endogenous, in microglial cells) (mouse) (UniProt Q9QUN7); experiment: co-immunoprecipitation from BV-2 microglial cell extracts: IP anti-MyD88, immunoblot TLR2; cells preincubated with wtTIDM or mTIDM peptide [G-L), panel G]
[5] = biological target: TLR4 (endogenous, in BV-2 microglial cells) (UniProt Q9QUK6); experiment: co-immunoprecipitation from BV-2 microglial cell extracts: IP anti-MyD88, immunoblot TLR4; cells preincubated with wtTIDM or mTIDM peptide [G-L), panel I]

Measured: binding

MyD88 (myeloid differentiation primary response 88), endogenous in BV-2 microglial cells (from UniProt P22366 1-296)
binds: all assays above
